Results from patent US20240325484A1, “COMPOSITION COMPRISING HORSE CHESTNUT EXTRACT” (ANGIOLAB, INC., priority 2021, published 2024).
Some entries share one result that the patent states for a list of compounds.

System: TRAP
Details: tested at 2.5, 5, 10, and 25 μM; RANKL-treated Raw 264.7 cells (FIGS. 12 to 15)

Row | Compound | concentration from which inhibition of TRAP activity was shown
1 | O=c1c(O[C@@H]2O[C@@H](CO)[C@H](O)[C@H]2O)c(-c2ccc(O)c(O)c2)oc2cc(O)cc(O)c12 [avicularin, Avicularin] | ≥ 2.5 µM
2 | O=c1c(O[C@@H]2O[C@@H](CO)[C@H](O)[C@H]2O)c(-c2ccc(O)cc2)oc2cc(O)cc(O)c12 [juglanin, Juglanin] | ≥ 2.5 µM
3 | C[C@@H]1O[C@@H](Oc2c(-c3ccc(O)c(O)c3)oc3cc(O)cc(O)c3c2=O)[C@H](O)[C@H](O)[C@H]1O [quercitrin, Quercitrin] | ≥ 2.5 µM
